Results taken from patent US20210154165A1.
No constants are given. Whether binding was seen depends on the method and setting. Binding seen in cells or lysates may run through a third protein. Some entries that bind do so weakly or less than the wild type.

Sequences of proteins named here, by UniProt entry; tags and fusion partners are left off. Residues count along the entry.
UniProt O14497, residues 2-2285: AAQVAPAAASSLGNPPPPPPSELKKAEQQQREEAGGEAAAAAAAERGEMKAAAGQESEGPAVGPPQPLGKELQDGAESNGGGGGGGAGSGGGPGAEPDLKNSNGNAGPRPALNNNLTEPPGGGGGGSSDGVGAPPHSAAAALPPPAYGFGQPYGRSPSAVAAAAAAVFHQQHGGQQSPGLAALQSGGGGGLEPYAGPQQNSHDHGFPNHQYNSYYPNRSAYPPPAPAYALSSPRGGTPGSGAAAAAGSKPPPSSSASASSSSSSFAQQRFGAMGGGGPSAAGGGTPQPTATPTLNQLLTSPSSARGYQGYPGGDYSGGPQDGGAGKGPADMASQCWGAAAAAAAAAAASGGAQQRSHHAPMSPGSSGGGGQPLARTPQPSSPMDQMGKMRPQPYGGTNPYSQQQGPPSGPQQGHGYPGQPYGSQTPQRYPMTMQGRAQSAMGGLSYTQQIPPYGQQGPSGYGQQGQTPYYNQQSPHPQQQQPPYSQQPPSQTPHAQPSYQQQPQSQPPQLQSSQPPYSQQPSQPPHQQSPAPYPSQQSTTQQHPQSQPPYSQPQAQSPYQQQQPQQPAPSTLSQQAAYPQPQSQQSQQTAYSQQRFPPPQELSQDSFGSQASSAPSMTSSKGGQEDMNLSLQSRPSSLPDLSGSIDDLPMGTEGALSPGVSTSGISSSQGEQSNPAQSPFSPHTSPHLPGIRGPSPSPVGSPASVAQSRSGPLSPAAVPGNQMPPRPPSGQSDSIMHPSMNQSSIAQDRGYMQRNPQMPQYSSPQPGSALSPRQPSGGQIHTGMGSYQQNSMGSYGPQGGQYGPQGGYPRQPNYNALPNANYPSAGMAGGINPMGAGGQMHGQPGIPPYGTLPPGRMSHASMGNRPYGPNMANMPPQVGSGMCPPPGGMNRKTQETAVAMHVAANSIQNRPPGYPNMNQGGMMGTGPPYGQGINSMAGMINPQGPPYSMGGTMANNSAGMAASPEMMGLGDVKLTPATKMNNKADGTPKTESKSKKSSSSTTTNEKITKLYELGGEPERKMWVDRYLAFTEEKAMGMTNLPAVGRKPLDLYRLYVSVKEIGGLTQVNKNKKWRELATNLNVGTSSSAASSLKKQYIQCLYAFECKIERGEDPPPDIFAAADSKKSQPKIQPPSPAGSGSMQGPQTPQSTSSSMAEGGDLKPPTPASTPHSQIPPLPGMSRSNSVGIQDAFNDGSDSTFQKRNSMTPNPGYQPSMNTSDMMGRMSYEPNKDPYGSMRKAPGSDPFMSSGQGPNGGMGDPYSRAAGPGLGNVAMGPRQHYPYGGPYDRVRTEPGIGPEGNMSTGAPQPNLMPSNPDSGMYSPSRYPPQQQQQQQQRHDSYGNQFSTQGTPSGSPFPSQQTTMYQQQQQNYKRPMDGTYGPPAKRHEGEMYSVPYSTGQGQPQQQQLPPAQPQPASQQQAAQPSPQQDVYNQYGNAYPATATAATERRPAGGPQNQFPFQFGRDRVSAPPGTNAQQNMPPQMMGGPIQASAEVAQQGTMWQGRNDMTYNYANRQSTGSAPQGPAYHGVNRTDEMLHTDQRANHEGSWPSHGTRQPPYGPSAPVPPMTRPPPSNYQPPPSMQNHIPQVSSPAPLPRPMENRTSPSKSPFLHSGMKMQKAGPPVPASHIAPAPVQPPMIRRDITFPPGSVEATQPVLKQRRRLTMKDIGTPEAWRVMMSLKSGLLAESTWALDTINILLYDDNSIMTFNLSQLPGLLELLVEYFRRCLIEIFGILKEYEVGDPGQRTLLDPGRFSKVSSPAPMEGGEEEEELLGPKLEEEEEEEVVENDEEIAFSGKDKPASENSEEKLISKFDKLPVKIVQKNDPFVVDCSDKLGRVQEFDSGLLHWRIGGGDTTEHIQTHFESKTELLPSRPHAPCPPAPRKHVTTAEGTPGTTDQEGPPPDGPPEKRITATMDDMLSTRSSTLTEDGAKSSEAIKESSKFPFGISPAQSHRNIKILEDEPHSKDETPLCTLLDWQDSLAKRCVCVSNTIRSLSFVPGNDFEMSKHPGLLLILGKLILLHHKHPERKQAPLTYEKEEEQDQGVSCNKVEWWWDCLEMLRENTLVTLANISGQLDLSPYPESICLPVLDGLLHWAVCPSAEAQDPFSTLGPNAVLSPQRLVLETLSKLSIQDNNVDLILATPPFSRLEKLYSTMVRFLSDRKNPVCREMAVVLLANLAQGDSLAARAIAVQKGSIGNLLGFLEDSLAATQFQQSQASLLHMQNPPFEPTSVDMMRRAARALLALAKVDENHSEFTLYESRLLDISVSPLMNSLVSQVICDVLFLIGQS
UniProt P27708, residues 2-2225: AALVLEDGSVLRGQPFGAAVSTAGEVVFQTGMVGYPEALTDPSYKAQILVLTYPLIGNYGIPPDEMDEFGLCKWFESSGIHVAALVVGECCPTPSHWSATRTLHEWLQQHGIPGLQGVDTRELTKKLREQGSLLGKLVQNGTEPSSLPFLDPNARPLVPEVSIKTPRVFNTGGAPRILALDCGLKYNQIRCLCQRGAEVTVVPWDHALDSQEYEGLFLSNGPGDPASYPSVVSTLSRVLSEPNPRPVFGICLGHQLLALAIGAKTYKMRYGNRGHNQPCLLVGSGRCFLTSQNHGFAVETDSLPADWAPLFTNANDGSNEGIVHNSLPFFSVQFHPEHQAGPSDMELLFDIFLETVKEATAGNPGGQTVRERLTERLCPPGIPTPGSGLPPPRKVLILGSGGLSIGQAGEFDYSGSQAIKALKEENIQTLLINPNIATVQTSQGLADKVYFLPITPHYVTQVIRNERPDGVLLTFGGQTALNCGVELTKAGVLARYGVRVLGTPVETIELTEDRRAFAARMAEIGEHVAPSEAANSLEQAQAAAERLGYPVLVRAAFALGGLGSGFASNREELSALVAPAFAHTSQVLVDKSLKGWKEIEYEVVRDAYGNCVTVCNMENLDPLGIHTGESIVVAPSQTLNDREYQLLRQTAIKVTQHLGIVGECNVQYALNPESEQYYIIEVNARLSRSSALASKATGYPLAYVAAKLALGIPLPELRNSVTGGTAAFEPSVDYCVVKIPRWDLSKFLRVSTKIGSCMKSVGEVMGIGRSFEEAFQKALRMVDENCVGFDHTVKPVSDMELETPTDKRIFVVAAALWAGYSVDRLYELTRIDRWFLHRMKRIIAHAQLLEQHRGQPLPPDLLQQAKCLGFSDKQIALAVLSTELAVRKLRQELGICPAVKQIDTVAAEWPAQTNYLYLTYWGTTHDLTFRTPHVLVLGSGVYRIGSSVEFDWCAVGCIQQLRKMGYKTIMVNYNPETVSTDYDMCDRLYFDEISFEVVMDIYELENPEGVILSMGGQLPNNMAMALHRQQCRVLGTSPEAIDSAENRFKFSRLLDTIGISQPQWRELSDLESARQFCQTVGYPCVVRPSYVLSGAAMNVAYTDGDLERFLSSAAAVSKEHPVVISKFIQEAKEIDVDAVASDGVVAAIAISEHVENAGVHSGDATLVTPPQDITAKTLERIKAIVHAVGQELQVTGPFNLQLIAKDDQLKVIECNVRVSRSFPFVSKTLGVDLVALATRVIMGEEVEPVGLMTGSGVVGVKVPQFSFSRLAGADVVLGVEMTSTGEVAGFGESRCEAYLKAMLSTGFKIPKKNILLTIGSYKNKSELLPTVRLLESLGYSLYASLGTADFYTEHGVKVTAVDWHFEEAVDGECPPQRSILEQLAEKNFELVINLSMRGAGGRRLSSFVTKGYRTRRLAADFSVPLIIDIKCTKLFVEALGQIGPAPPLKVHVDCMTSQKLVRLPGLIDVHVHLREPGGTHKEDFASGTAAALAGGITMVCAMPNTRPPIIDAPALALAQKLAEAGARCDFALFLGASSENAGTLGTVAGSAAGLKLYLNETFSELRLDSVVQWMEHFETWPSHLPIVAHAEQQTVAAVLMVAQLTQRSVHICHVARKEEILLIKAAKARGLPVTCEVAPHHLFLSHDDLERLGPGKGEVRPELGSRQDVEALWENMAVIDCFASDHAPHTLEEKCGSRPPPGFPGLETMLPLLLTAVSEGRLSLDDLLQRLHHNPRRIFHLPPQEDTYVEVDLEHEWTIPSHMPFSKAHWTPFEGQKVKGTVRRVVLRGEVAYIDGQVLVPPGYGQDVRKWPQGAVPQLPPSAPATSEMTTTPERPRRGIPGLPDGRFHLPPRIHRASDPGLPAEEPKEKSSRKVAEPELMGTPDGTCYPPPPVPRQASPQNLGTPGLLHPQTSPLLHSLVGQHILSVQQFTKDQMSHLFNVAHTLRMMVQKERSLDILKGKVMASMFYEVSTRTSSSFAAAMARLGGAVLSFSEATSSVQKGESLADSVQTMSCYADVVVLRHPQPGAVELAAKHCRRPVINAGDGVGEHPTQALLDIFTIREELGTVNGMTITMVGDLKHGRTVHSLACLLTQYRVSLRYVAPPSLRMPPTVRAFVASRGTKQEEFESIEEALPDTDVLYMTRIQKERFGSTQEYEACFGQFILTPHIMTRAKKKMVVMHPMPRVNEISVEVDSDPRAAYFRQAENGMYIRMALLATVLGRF

Tests used:
[1] = target: ARID1A (endogenous, ARID1A-wildtype cancer cell lysate) (UniProt O14497); experiment: co-immunoprecipitation with anti-ARID1A antibody from ARID1A-wildtype cell lysate, immunoblot (FIG. 1B)
[2] = target: ARID1A (endogenous, ARID1A-wildtype cancer cell lysate) (UniProt O14497); experiment: immunoprecipitation of the endogenous ARID1A complex (KLE cells; similar in ES2), SDS-PAGE band, LC-MS/MS (FIG. 1A, FIG. 6)
[3] = target: Carbamoyl-phosphate synthetase 2, Aspartate transcarbamoylase, and Dihydroorotase (CAD) (endogenous) (human) (UniProt P27708); experiment: reciprocal co-immunoprecipitation with anti-ARID1A and anti-CAD antibodies, immunoblot (FIG. 1B, 1C; ES2 shown, KLE data not shown)
[4] = target: Carbamoyl-phosphate synthetase 2, Aspartate transcarbamoylase, and Dihydroorotase (CAD) (endogenous) (human) (UniProt P27708); experiment: co-immunoprecipitation with anti-CAD antibody from ARID1A-wildtype cell lysate, immunoblot (FIG. 1C)

| binding [1] | binding [2] | binding [3] | binding [4] | Substance |
| --- | --- | --- | --- | --- |
| binds | binds |  |  | Carbamoyl-phosphate synthetase 2, Aspartate transcarbamoylase, and Dihydroorotase (CAD) (endogenous) (from UniProt P27708 2-2225) (enzyme) |
|  |  | binds | binds | ARID1A (endogenous, ARID1A-wildtype cancer cell lysate) (from UniProt O14497 2-2285) |
